Reference: PubChem BioAssay AID2417 (National Center for Advancing Translational Sciences (NCATS), 2010)
The whole screen tested about 140,000 compounds, of which about 4,300 (3.1%) were called active. This list was built around the results that the source calls inconclusive (neither active nor inactive); the mix of calls is not that of the screen.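 Rule for the calls: active = readout at or below -70, meaning at least 70% loss of cells showing the perinucleolar compartment, a nuclear body marking cancer cells; inconclusive = readout between -30 and a set limit; inactive = the rest.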

Test: High Content Assay for Compounds that inhibit the Assembly of the Perinucleolar Compartment;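 note: plate controls were DMSO wells for no effect and camptothecin positive control wells for full effect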
Details: PC3M PTB-GFP, PNC prevalence imaging, 16 h; at 10 µM; active compounds read low
Procedure, shortened: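 Compounds are pinned in duplicate onto adhered PC3M cells stably expressing GFP-tagged PTB and incubated 16 h at 37 C. Cells are then fixed, nuclei stained with Hoechst, and PNC-positive cells counted.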
For CC1Cc2ccccc2N1C(=O)COc1nc2ccccc2nc1N1CCOCC1 (stereo not given), the activity change (PNC), negative = inhibition was inactive: 41.5%.
For Cn1c(=O)c2c(nc(N/N=C/c3ccc(OC(=O)c4ccco4)cc3)n2Cc2ccccc2)n(C)c1=O, the activity change (PNC), negative = inhibition was inconclusive: -54.7%.
For O=C(N/N=C\c1ccc([N+](=O)[O-])s1)c1cncc(Br)c1, the activity change (PNC), negative = inhibition was active: -102%.
With CCOC(=O)CN1C(=O)S/C(=C/c2ccc(OC)c([N+](=O)[O-])c2)C1=O the activity change (PNC), negative = inhibition was inactive: -24%.
For CN1C(=S)NC(C)(C)CC1(C)c1ccc(O)cc1O (stereo not given), the activity change (PNC), negative = inhibition was inconclusive: -38%.
In the case of CCOC(=O)/C(=C\C=C1/Sc2cc(OCC)c(OCC)cc2N1CC)C(C)=O, the activity change (PNC), negative = inhibition is reported as inconclusive: -32.2%.
For CCCC1c2ccc(C)n2CCN1C(=O)Nc1ccc(F)cc1 (stereo not given), the activity change (PNC), negative = inhibition was inactive: 119%.
In the case of CCOC(=O)c1c(-c2ccccc2)csc1NC(=O)c1nn(CC)cc1Br, the activity change (PNC), negative = inhibition is reported as inconclusive: -53.2%.
In the case of CCC(C)N(C(=O)COC(=O)c1[nH]c(C)c(C(C)=O)c1C)C1CCS(=O)(=O)C1 (stereo not given), the activity change (PNC), negative = inhibition is reported as inconclusive: -39%.
With NS(=O)(=O)c1ccc(CCNC(=O)c2ccccc2F)cc1 the activity change (PNC), negative = inhibition was inactive: 23%.
In the case of CCOc1cc(CNc2ccc(N3CCN(C(C)=O)CC3)cc2)cc(Br)c1OC, the activity change (PNC), negative = inhibition is reported as inconclusive: -32.9%.
With Cc1ccc(C(=O)Nc2ccc(C(=O)N/N=C/c3c[nH]c4ccccc34)cc2)cc1 the activity change (PNC), negative = inhibition was inactive: 12.2%.
With CC(OCCN1CCCC1)(c1ccc(F)cc1)c1ccc(F)cc1 the activity change (PNC), negative = inhibition was inconclusive: -43.2%.
For CCOc1ccc(C(=O)OCC(=O)Nc2nc(OC)cc(OC)n2)cc1OCC, the activity change (PNC), negative = inhibition was inconclusive: -54.2%.
In the case of O=C(CN1C(=O)CSC1=O)Nc1ccc(N2CCOCC2)cc1, the activity change (PNC), negative = inhibition is reported as inconclusive: -40.7%.
With CCOC(=O)N1CCN(c2nnnn2-c2ccccc2)CC1 the activity change (PNC), negative = inhibition was inactive: -13.5%.
In the case of C=CCNC(=O)C(=O)NCCOc1ccccc1Cl, the activity change (PNC), negative = inhibition is reported as inactive: -23%.
With Cc1ccc(-n2nc3c(Cl)nnc(C)c3c2C)cc1 the activity change (PNC), negative = inhibition was inconclusive: -30.9%.
In the case of O=C(c1cccc(NS(=O)(=O)c2ccc(F)c(F)c2)c1)N1CCN(C(c2ccccc2)c2ccccc2)CC1, the activity change (PNC), negative = inhibition is reported as inconclusive: -33%.
With CCN(CC)S(=O)(=O)c1ccc(-c2ccc(S(=O)(=O)N(CC)CC)cc2)cc1 the activity change (PNC), negative = inhibition was inconclusive: -32.1%.
In the case of CC(C)Cc1cc(C(=O)Nc2sc3c(c2C#N)CCC3)no1, the activity change (PNC), negative = inhibition is reported as inactive: 11.2%.
For CCN(CC)c1ccc(/C=C2\C(=O)c3ccc(C(=O)O)cc3C2=O)cc1, the activity change (PNC), negative = inhibition was inconclusive: -59.2%.
With CN(C)c1cccc(NC2=CC(=[N+]3CCOCC3)CC(C)(C)C2)c1 the activity change (PNC), negative = inhibition was inconclusive: -34.4%.
With O=S(=O)(c1ccc(Cl)cc1)N1CCC(N2CCCCCC2)CC1 the activity change (PNC), negative = inhibition was inconclusive: -31%.
With COc1ccc(OCC(=O)NNC(=O)c2ccc(-c3ccccc3)cc2)cc1 the activity change (PNC), negative = inhibition was inconclusive: -37.7%.
In the case of CC(=N/O)/C(=N\O)c1ccc(C)o1, the activity change (PNC), negative = inhibition is reported as inconclusive: -37.6%.
In the case of OC(COc1ccc(Cl)cc1)CN1C2=NCCCN2c2ccccc21 (stereo not given), the activity change (PNC), negative = inhibition is reported as inconclusive: -43%.
With C=CCN(C(=O)Nc1ccc(F)cc1)C1CC(=O)N(c2ccc(OC)cc2)C1=O (stereo not given) the activity change (PNC), negative = inhibition was inconclusive: -39.7%.
With COC(=O)c1c(NS(=O)(=O)c2ccc3ccccc3c2)sc2c1CCCC2 the activity change (PNC), negative = inhibition was inconclusive: -46.5%.
With CCOC(=O)C1C(=O)C=C(c2ccc(C)cc2)CC1c1ccco1 (stereo not given) the activity change (PNC), negative = inhibition was inactive: 25.1%.
For CC1CCCC(NC(=O)CCn2c(=O)oc3ccccc32)C1C (stereo not given), the activity change (PNC), negative = inhibition was inconclusive: -40.9%.
For CCOC(=O)C1CCN(CCC(=O)Nc2ccccc2)CC1, the activity change (PNC), negative = inhibition was inconclusive: -77.8%.
With Cc1cccc(OCCCC(=O)Nc2ccc(Br)cc2)c1 the activity change (PNC), negative = inhibition was inconclusive: -30.9%.
For CC(C)N(Cc1nc(-c2ccc(Cl)cc2)no1)C(=O)CCC1CCCC1, the activity change (PNC), negative = inhibition was inconclusive: -49.8%.
For CCOc1cc(CNc2ccccc2)cc(Br)c1OCC(=O)NC(C)(C)C, the activity change (PNC), negative = inhibition was inactive: -29.5%.
In the case of Cc1ccc(Nc2cc(C)nn2-c2nc(C)cc(C)n2)cc1, the activity change (PNC), negative = inhibition is reported as inactive: -11.5%.
With CCCc1cc(=O)[nH]c(SCC(=O)N(C)CC(=O)Nc2ccc(C)cc2)n1 the activity change (PNC), negative = inhibition was active: -115%.
For COc1ccc(-c2nnn(CC(=O)NCc3ccccc3)n2)cc1OC, the activity change (PNC), negative = inhibition was active: -119%.
In the case of COCCn1cc(C(=O)NCc2cccs2)c2c3ccccc3n(C)c2c1=O, the activity change (PNC), negative = inhibition is reported as inconclusive: -49%.
In the case of COc1c(Cl)cc(-c2noc(C)c2C(=O)NCCc2ccc(C)cc2)cc1Cl, the activity change (PNC), negative = inhibition is reported as inactive: 23.3%.
In the case of Cc1nc(SCC(=O)Nc2ccc(F)cc2)c2oc3ccccc3c2n1, the activity change (PNC), negative = inhibition is reported as inactive: 1.39%.
For O=C(CSc1nc2ccccc2nc1SCC(=O)N1CCOCC1)N1CCOCC1, the activity change (PNC), negative = inhibition was inconclusive: -58.6%.
In the case of Cc1ccc(-c2cc(C(=O)NCCCn3ccnc3)c3ccccc3n2)s1, the activity change (PNC), negative = inhibition is reported as inconclusive: -39.3%.
For COc1ccccc1NC(=S)Nc1cccc2cnccc12, the activity change (PNC), negative = inhibition was inactive: 17.7%.
With CCC(C)NS(=O)(=O)c1ccc(-c2csnn2)s1 (stereo not given) the activity change (PNC), negative = inhibition was inactive: 14.9%.
